Measurements published in article PMC10600106.
No constants are given. Whether binding was seen depends on the method and setting. In cells and extracts the contact can be indirect. Some results given as binding are weak or reduced against the parent protein; the word gives no strength.

Biological target: T1, Zinc finger protein 281 (ZNF281) (human (endogenous in HLE)) (UniProt Q9Y2X9)
T1 sequence: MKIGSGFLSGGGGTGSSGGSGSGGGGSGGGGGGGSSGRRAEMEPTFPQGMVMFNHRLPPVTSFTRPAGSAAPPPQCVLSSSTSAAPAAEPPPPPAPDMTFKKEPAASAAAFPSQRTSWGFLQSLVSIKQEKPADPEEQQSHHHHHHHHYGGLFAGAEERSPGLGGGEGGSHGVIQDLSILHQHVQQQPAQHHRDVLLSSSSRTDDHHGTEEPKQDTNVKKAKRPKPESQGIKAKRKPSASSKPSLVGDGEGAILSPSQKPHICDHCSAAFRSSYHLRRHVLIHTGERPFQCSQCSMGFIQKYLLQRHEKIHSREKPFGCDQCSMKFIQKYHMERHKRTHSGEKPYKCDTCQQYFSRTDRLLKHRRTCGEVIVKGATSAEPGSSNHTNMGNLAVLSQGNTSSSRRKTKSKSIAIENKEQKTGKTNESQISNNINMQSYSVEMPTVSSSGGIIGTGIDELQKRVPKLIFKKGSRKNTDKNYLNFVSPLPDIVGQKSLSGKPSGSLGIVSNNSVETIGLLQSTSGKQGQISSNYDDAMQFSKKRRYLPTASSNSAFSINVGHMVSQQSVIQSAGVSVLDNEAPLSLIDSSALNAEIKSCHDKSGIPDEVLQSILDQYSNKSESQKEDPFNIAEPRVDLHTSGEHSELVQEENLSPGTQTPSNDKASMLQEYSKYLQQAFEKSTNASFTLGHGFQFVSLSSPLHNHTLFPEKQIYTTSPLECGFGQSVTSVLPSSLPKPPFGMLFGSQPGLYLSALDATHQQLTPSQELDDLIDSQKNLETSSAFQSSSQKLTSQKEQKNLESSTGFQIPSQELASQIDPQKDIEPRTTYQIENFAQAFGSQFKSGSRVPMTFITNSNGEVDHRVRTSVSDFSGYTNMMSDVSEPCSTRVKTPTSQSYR
Assay: co-IP; endogenous proteins from HLE cells in RIPA buffer (50 mM Tris-Cl pH 7.5, 150 mM NaCl, 0.2 mM EDTA, 2% NP-40); precipitated with anti-ZNF281 or control IgG and Protein A/G PLUS-Agarose at 4 °C overnight; immunoblot

binding: binds
B1: nuclear respiratory factor 1 (NRF1) (protein, UniProt Q16656 1-503)
chain: MEEHGVTQTEHMATIEAHAVAQQVQQVHVATYTEHSMLSADEDSPSSPEDTSYDDSDILNSTAADEVTAHLAAAGPVGMAAAAAVATGKKRKRPHVFESNPSIRKRQQTRLLRKLRATLDEYTTRVGQQAIVLCISPSKPNPVFKVFGAAPLENVVRKYKSMILEDLESALAEHAPAPQEVNSELPPLTIDGIPVSVDKMTQAQLRAFIPEMLKYSTGRGKPGWGKESCKPIWWPEDIPWANVRSDVRTEEQKQRVSWTQALRTIVKNCYKQHGREDLLYAFEDQQTQTQATATHSIAHLVPSQTVVQTFSNPDGTVSLIQVGTGATVATLADASELPTTVTVAQVNYSAVADGEVEQNWATLQGGEMTIQTTQASEATQAVASLAEAAVAASQEMQQGATVTMALNSEAAAHAVATLAEATLQGGGQIVLSGETAAAVGALTGVQDANGLVQIPVSMYQTVVTSLAQGNGPVQVAMAPVTTRISDSAVTMDGQAVEVVTLEQ
